Laboratory results: PMC10619437
These are yes or no findings as the source states them, for the method shown. Binding seen in cells or lysates may run through a third protein. A result given as binding can be weak or reduced; the word gives no strength.

Sequences of proteins named here, by UniProt entry; tags and fusion partners are left off. A change or cut given only in a name is not applied to a line headed by its entry.
UniProt P61586: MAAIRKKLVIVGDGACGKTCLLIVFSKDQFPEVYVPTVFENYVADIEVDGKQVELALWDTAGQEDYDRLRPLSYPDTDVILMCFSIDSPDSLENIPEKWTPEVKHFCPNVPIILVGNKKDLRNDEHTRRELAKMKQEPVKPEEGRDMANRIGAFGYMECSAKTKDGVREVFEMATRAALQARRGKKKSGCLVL
UniProt P21980: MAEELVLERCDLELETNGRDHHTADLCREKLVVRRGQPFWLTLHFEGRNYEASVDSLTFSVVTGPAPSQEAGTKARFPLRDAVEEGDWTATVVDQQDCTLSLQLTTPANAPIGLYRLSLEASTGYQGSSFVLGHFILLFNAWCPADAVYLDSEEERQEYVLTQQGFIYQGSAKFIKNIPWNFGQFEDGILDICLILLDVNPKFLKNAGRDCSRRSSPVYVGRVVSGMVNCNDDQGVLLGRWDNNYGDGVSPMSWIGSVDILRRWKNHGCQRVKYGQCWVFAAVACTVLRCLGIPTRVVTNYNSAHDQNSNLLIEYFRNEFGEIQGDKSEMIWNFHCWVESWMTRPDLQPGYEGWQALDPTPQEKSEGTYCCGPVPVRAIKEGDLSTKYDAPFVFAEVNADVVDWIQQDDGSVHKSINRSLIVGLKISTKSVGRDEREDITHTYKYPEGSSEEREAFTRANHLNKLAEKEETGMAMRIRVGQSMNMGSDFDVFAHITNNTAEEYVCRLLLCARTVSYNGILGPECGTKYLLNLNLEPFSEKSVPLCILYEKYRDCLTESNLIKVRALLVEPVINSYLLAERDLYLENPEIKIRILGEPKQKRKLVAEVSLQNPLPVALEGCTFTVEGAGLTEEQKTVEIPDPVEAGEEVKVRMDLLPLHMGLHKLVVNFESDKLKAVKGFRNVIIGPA

Molecular target: Ras homolog family member A (human (endogenous in HMC)) (UniProt P61586)
Assay: co-IP; RhoA immunoprecipitated with rabbit anti-RhoA antibody from vesicular fractions (C1) of HMC with or without pIgA1 (10 ug/mL, 48 h); TGase2 and RhoA detected by Western blot

binding: binds
Substance: Transglutaminase 2 (from UniProt P21980) (enzyme)
